Data as given in patent US10039825B2, “Combination therapy with CD4 lymphocyte depletion and MTOR inhibitors” (Cedars-Sinai Medical Center, priority 2010, dated 2018).
At least one structure is not confirmed: it was looked up by name or label, or the drawing left a doubt.

System: C57 BL/6 or Pmel-1 mouse lymph node lymphocytes
Assay: [3H] thymidine incorporation assay of stimulated lymph node lymphocytes
Assay type: cell-based
Conditions: lymphocytes stimulated with anti-CD3 and anti-CD28 mAb or gp100 peptide, 72 hours; FIG. 1A
Method: As has been well established, mTOR inhibitors have immune suppressing activity. For the [3H] thymidine incorporation assay, lymph nodes were harvested from naïve C57 BL/6 or Pmel-1 mouse, 3×10^5 cells/well were cultured in 96-well plates and stimulated, with or without mTOR inhibitors, for 72 hours. C57 BL/6 lymphocytes were stimulated with anti-CD3 and anti-CD28 mAb, and Pmel-1 lymphocytes were stimulated with […]. DNA synthesis was determined by incubation for 16 h with 1 μCi [3H]thymidine (Amersham Biosciences, Piscataway, N.J., USA).

CO[C@H]1C[C@@H]2CC[C@@H](C)[C@@](O)(O2)C(=O)C(=O)N2CCCC[C@H]2C(=O)O[C@H]([C@H](C)C[C@@H]2CC[C@@H](O)[C@H](OC)C2)CC(=O)[C@H](C)/C=C(\C)[C@@H](O)[C@@H](OC)C(=O)[C@H](C)C[C@H](C)/C=C/C=C/C=C/1C [rapamycin, Rapamycin]
immune suppressing activity, DNA synthesis by [3H]thymidine incorporation: nearly identical activities
